Measured values reported in the supplement of paper PMC4604168 (melanoma cell lines).
This is one part of the list. Repeats are few or missing, and single values can be far off.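 The apoptosis fraction was the count of cleaved-PARP antibody-stained nuclei relative to all DNA-stained nuclei, imaged in 1,536-well plates. Screening doses were set so most cells survived, and baseline and induced cleaved-PARP levels vary greatly across cell lines.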

tested on: MeWo; assay: cleaved PARP positive nuclei fraction relative to DMSO control; melanoma cells; higher = more apoptosis; conditions: library dose: low library concentration; 72 h

Structure (SMILES)	cleaved PARP positive nuclei fraction
COc1ccc(C2=N[C@@H](c3ccc(Cl)cc3)[C@@H](c3ccc(Cl)cc3)N2C(=O)N2CCNC(=O)C2)c(OC(C)C)c1 [Nutlin-3] + NC(=O)Nc1cc(-c2cccc(F)c2)sc1C(=O)N[C@H]1CCCNC1 [AZD7762] (first compound 0.1 µM, partner dose 0.02 µM)	74.3%
CS(=O)(=O)c1ccc(C(=O)Nc2ccc(Cl)c(-c3ccccn3)c2)c(Cl)c1 [vismodegib] + Cc1ccc(NC(=O)c2cccc(N(C)C)c2)cc1NC(=O)c1ccc(O)cc1 [ZM336372] (first compound 1 µM, partner dose 2 µM)	101%
CCCCCCCCc1ccc(CCC(N)(CO)CO)cc1 [fingolimod] + Cn1cc(/C=C2\C(=O)Nc3cccnc32)c2ccccc21 [GW441756] (first compound 2 µM, partner dose 0.4 µM)	38.7%
NC1(c2ccc(-c3nc4ccn5c(=O)[nH]nc5c4cc3-c3ccccc3)cc2)CCC1 + C=CCn1c(=O)c2cnc(Nc3ccc(N4CCN(C)CC4)cc3)nc2n1-c1cccc(C(C)(C)O)n1 [MK1775] (first compound 0.4 µM, partner dose 0.02 µM)	111%
C[C@]1(O)C[C@@H](c2nc(-c3ccc4ccc(-c5ccccc5)nc4c3)c3c(N)nccn32)C1 + O=C(Nc1cccc(Cl)c1)Nc1ncc(CCNc2ncnc3ccsc23)s1 [SNS314] (first compound 0.4 µM, partner dose 0.0008 µM)	69.7%
CC1(C)CCC(c2ccc(Cl)cc2)=C(CN2CCN(c3ccc(C(=O)NS(=O)(=O)c4ccc(N[C@H](CCN5CCOCC5)CSc5ccccc5)c(S(=O)(=O)C(F)(F)F)c4)cc3)CC2)C1 + O=C1NC(=O)/C(=C/c2ccc(-c3ccc(F)cc3O)o2)S1 [AS252424] (first compound 0.4 µM, partner dose 1 µM)	181%
CC1(C)CCC(c2ccc(Cl)cc2)=C(CN2CCN(c3ccc(C(=O)NS(=O)(=O)c4ccc(N[C@H](CCN5CCOCC5)CSc5ccccc5)c(S(=O)(=O)C(F)(F)F)c4)cc3)CC2)C1 + c1cc(-c2cnn3cc(-c4ccc(OCCN5CCCCC5)cc4)cnc23)ccn1 [Dorsomorphin] (first compound 0.4 µM, partner dose 0.4 µM)	221%
CN(c1ncccc1CNc1nc(Nc2ccc3c(c2)CC(=O)N3)ncc1C(F)(F)F)S(C)(=O)=O + CCN(CC)CCCCNc1ncc2cc(-c3cc(OC)cc(OC)c3)c(NC(=O)NC(C)(C)C)nc2n1 [PD173074] (first compound 0.08 µM, partner dose 0.1 µM)	97.1%

Fetched one by one from above (2):
Structure (SMILES)	cleaved PARP positive nuclei fraction
CS(=O)(=O)c1ccc(C(=O)Nc2ccc(Cl)c(-c3ccccn3)c2)c(Cl)c1 [vismodegib] + Cc1ccc(NC(=O)c2cccc(N(C)C)c2)cc1NC(=O)c1ccc(O)cc1 [ZM336372] (first compound 1 µM, partner dose 2 µM)	101%
CN(c1ncccc1CNc1nc(Nc2ccc3c(c2)CC(=O)N3)ncc1C(F)(F)F)S(C)(=O)=O + CCN(CC)CCCCNc1ncc2cc(-c3cc(OC)cc(OC)c3)c(NC(=O)NC(C)(C)C)nc2n1 [PD173074] (first compound 0.08 µM, partner dose 0.1 µM)	97.1%

tested on: RPMI7951; assay: as above; conditions: library dose: low library concentration; 72 h

Structure (SMILES)	cleaved PARP positive nuclei fraction
CC1(C)CCC(c2ccc(Cl)cc2)=C(CN2CCN(c3ccc(C(=O)NS(=O)(=O)c4ccc(N[C@H](CCN5CCOCC5)CSc5ccccc5)c(S(=O)(=O)C(F)(F)F)c4)cc3)CC2)C1 + Cc1cc([N+](=O)[O-])ccc1NS(=O)(=O)c1cc(Cl)ccc1Cl [FH535] (first compound 0.4 µM, partner dose 1 µM)	148%
NC1(c2ccc(-c3nc4ccn5c(=O)[nH]nc5c4cc3-c3ccccc3)cc2)CCC1 + CC(C)(C)c1cnc(CSc2cnc(NC(=O)C3CCNCC3)s2)o1 [SNS-032] (first compound 0.4 µM, partner dose 0.01 µM)	118%
CN(c1ncccc1CNc1nc(Nc2ccc3c(c2)CC(=O)N3)ncc1C(F)(F)F)S(C)(=O)=O + O=C(O)C(=O)Nc1sc2c(c1C(=O)O)CCNC2 [TCS401] (first compound 0.08 µM, partner dose 1.66667 µM)	38.4%
NC1(c2ccc(-c3nc4ccn5c(=O)[nH]nc5c4cc3-c3ccccc3)cc2)CCC1 + COc1cc2c(Oc3ccc4[nH]c(C)cc4c3F)ncnc2cc1OCCCN1CCCC1 [cediranib] (first compound 0.4 µM, partner dose 0.4 µM)	35.6%
CC1(C)CCC(c2ccc(Cl)cc2)=C(CN2CCN(c3ccc(C(=O)NS(=O)(=O)c4ccc(N[C@H](CCN5CCOCC5)CSc5ccccc5)c(S(=O)(=O)C(F)(F)F)c4)cc3)CC2)C1 + C=CCn1c(=O)c2cnc(Nc3ccc(N4CCN(C)CC4)cc3)nc2n1-c1cccc(C(C)(C)O)n1 [MK1775] (first compound 0.4 µM, partner dose 0.02 µM)	212%
NC1(c2ccc(-c3nc4ccn5c(=O)[nH]nc5c4cc3-c3ccccc3)cc2)CCC1 + COc1ccc(-c2ccc3c(N4CCOCC4)nc(N4C[C@@H](C)O[C@@H](C)C4)nc3n2)cc1CO [KU0063794] (first compound 0.4 µM, partner dose 0.02 µM)	80.9%
CS(=O)(=O)c1ccc(C(=O)Nc2ccc(Cl)c(-c3ccccn3)c2)c(Cl)c1 [vismodegib] + COC(=O)c1sccc1S(=O)(=O)Nc1ccc(Nc2ccccc2)cc1OC [GSK0660] (first compound 1 µM, partner dose 1 µM)	53.1%
NC(=O)c1ccc(N(C(N)=O)c2c(F)cccc2F)nc1-c1ccc(F)cc1F + O=C(CCCCCCC(=O)Nc1ccccc1)NO [vorinostat] (first compound 0.4 µM, partner dose 0.08 µM)	220%
Cn1sc(=O)n(Cc2ccccc2)c1=O + O=c1cc(-c2cccc3c2Sc2ccccc2S3)oc(N2CCOCC2)c1 [KU55933] (first compound 0.4 µM, partner dose 1 µM)	38.1%
CCCCCCCCc1ccc(CCC(N)(CO)CO)cc1 [fingolimod] + COc1cc2ncnc(Nc3ccc(Oc4ccccc4)cc3)c2cc1OC [SrcI1] (first compound 2 µM, partner dose 2 µM)	57.9%
NC1(c2ccc(-c3nc4ccn5c(=O)[nH]nc5c4cc3-c3ccccc3)cc2)CCC1 + Cc1ccc(NC(=O)c2cccc(N(C)C)c2)cc1NC(=O)c1ccc(O)cc1 [ZM336372] (first compound 0.4 µM, partner dose 2 µM)	177%
COc1ccc(C2=N[C@@H](c3ccc(Cl)cc3)[C@@H](c3ccc(Cl)cc3)N2C(=O)N2CCNC(=O)C2)c(OC(C)C)c1 [Nutlin-3] + C[C@@H]1CCN(C(=O)CC#N)C[C@@H]1N(C)c1ncnc2[nH]ccc12 [CP690550] (first compound 0.1 µM, partner dose 1 µM)	84.9%
CS(=O)(=O)c1ccc(C(=O)Nc2ccc(Cl)c(-c3ccccn3)c2)c(Cl)c1 [vismodegib] + CC(C)(C)c1cnc(CSc2cnc(NC(=O)C3CCNCC3)s2)o1 [SNS-032] (first compound 1 µM, partner dose 0.01 µM)	42.3%
NC1(c2ccc(-c3nc4ccn5c(=O)[nH]nc5c4cc3-c3ccccc3)cc2)CCC1 + Cn1cc(/C=C2\C(=O)Nc3cccnc32)c2ccccc21 [GW441756] (first compound 0.4 µM, partner dose 0.4 µM)	70.7%
Cn1cnc2c(F)c(Nc3ccc(Br)cc3Cl)c(C(=O)NOCCO)cc21 [selumetinib] + O=C(Nc1cccc(Cl)c1)Nc1ncc(CCNc2ncnc3ccsc23)s1 [SNS314] (first compound 0.015 µM, partner dose 0.0008 µM)	336%
CC1(C)CCC(c2ccc(Cl)cc2)=C(CN2CCN(c3ccc(C(=O)NS(=O)(=O)c4ccc(N[C@H](CCN5CCOCC5)CSc5ccccc5)c(S(=O)(=O)C(F)(F)F)c4)cc3)CC2)C1 + CCN(CC)CCCCNc1ncc2cc(-c3cc(OC)cc(OC)c3)c(NC(=O)NC(C)(C)C)nc2n1 [PD173074] (first compound 0.4 µM, partner dose 0.1 µM)	299%
C[C@]1(O)C[C@@H](c2nc(-c3ccc4ccc(-c5ccccc5)nc4c3)c3c(N)nccn32)C1 + COc1cc2ncnc(Nc3ccc(Oc4ccccc4)cc3)c2cc1OC [SrcI1] (first compound 0.4 µM, partner dose 2 µM)	86%
CC1(C)CCC(c2ccc(Cl)cc2)=C(CN2CCN(c3ccc(C(=O)NS(=O)(=O)c4ccc(N[C@H](CCN5CCOCC5)CSc5ccccc5)c(S(=O)(=O)C(F)(F)F)c4)cc3)CC2)C1 + CCc1ccc(CCOc2ccc(CC3SC(=O)NC3=O)cc2)nc1 [pioglitazone] (first compound 0.4 µM, partner dose 2 µM)	111%
C[C@@H](N)c1ccc(C(=O)Nc2ccnc3[nH]ccc23)cc1 + CCN(CC)CCCCNc1ncc2cc(-c3cc(OC)cc(OC)c3)c(NC(=O)NC(C)(C)C)nc2n1 [PD173074] (first compound 0.4 µM, partner dose 0.1 µM)	70.1%
CCN(CC)CCNC(=O)c1c(C)[nH]c(/C=C2\C(=O)Nc3ccc(F)cc32)c1C [sunitinib] + Cc1cc(N2CCOCC2)cc2[nH]c(-c3c(NC[C@@H](O)c4cccc(Cl)c4)cc[nH]c3=O)nc12 [BMS536924] (first compound 0.4 µM, partner dose 0.2 µM)	99.5%
NC(=O)c1ccc(N(C(N)=O)c2c(F)cccc2F)nc1-c1ccc(F)cc1F + O=C(Nc1cccc(Cl)c1)Nc1ncc(CCNc2ncnc3ccsc23)s1 [SNS314] (first compound 0.4 µM, partner dose 0.0008 µM)	101%
Cn1cnc2c(F)c(Nc3ccc(Br)cc3Cl)c(C(=O)NOCCO)cc21 [selumetinib] + Cc1ccc(NC(=O)c2cccc(N(C)C)c2)cc1NC(=O)c1ccc(O)cc1 [ZM336372] (first compound 0.015 µM, partner dose 2 µM)	105%
